Experimental data: PubChem BioAssay AID1224830 (NIAID, 2016)
Test: 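Host factors that control LPS-induced TNF expression in human macrophages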 (primary screen). Cells: human THP-1 monocytic leukaemia cells, TNF dual-luciferase reporter clone, PMA-differentiated to macrophage-like cells. Reagents: siRNA pool against human genes, 50 nM. Timing: LPS for 4 h, given about 3 days after siRNA transfection. Conditions: bacterial LPS (TLR4 ligand), 10 ng/ml. Measured: 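TNF firefly reporter luminescence divided by renilla, normalised to the plate median, then turned into a robust z-score for each replicate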. Reading the numbers: TNF reporter robust z-score: higher = stronger TNF reporter response to LPS. Hit rule: 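a well is active when its z-score exceeds 2.8 or falls below -1.5; control wells carry no call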.
This is an unselected part of about 18,000 reagents tested. In the full data, about 2,900 (16%) got an active call. 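Calls are made per well; low scores hint the gene aids the LPS response, high scores that it dampens it.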 Unmarked entries are inactive. Repeated entries: four replicate wells of each siRNA pool.

Gene	TNF reporter robust z-score
NAXD (NAD(P)HX dehydratase)	0.52
NAXD (NAD(P)HX dehydratase)	0.22
NAXD (NAD(P)HX dehydratase)	-0.56
NAXD (NAD(P)HX dehydratase)	0.94
FITM2 (fat storage inducing transmembrane protein 2)	1.39
FITM2 (fat storage inducing transmembrane protein 2)	0.39
FITM2 (fat storage inducing transmembrane protein 2)	1.74
FITM2 (fat storage inducing transmembrane protein 2)	0.1
HS6ST2 (heparan sulfate 6-O-sulfotransferase 2)	-1.23
HS6ST2 (heparan sulfate 6-O-sulfotransferase 2)	-0.75
HS6ST2 (heparan sulfate 6-O-sulfotransferase 2)	-0.1
HS6ST2 (heparan sulfate 6-O-sulfotransferase 2)	-0.23
OR2J2 (olfactory receptor family 2 subfamily J member 2)	0.49
OR2J2 (olfactory receptor family 2 subfamily J member 2)	-0.74
OR2J2 (olfactory receptor family 2 subfamily J member 2)	-0.85
OR2J2 (olfactory receptor family 2 subfamily J member 2)	-1.1
C22orf15 (chromosome 22 open reading frame 15)	-1.66 (active)
C22orf15 (chromosome 22 open reading frame 15)	3.77 (active)
C22orf15 (chromosome 22 open reading frame 15)	-1.23
C22orf15 (chromosome 22 open reading frame 15)	-0.46
FUT5 (fucosyltransferase 5)	-0.55
FUT5 (fucosyltransferase 5)	-0.51
FUT5 (fucosyltransferase 5)	24.4 (active)
FUT5 (fucosyltransferase 5)	-0.4
FEZ1 (fasciculation and elongation protein zeta 1)	3.07 (active)
FEZ1 (fasciculation and elongation protein zeta 1)	4.21 (active)
FEZ1 (fasciculation and elongation protein zeta 1)	4.52 (active)
FEZ1 (fasciculation and elongation protein zeta 1)	0.47
MLH1 (mutL homolog 1)	-0.27
MLH1 (mutL homolog 1)	0.85
MLH1 (mutL homolog 1)	-0.12
MLH1 (mutL homolog 1)	0.26
WDR64 (WD repeat domain 64)	0.47
WDR64 (WD repeat domain 64)	-0.27
WDR64 (WD repeat domain 64)	-0.01
WDR64 (WD repeat domain 64)	-0.16
H1-8 (H1.8 linker histone)	-1.77 (active)
H1-8 (H1.8 linker histone)	-1.53 (active)
H1-8 (H1.8 linker histone)	-1.54 (active)
H1-8 (H1.8 linker histone)	-1.63 (active)
RAET1L (retinoic acid early transcript 1L)	-0.24
RAET1L (retinoic acid early transcript 1L)	0.64
RAET1L (retinoic acid early transcript 1L)	-0.03
RAET1L (retinoic acid early transcript 1L)	0.29

Continued; the last 14 above are carried over.
Gene	TNF reporter robust z-score
MLH1 (mutL homolog 1)	-0.12
MLH1 (mutL homolog 1)	0.26
WDR64 (WD repeat domain 64)	0.47
WDR64 (WD repeat domain 64)	-0.27
WDR64 (WD repeat domain 64)	-0.01
WDR64 (WD repeat domain 64)	-0.16
H1-8 (H1.8 linker histone)	-1.77 (active)
H1-8 (H1.8 linker histone)	-1.53 (active)
H1-8 (H1.8 linker histone)	-1.54 (active)
H1-8 (H1.8 linker histone)	-1.63 (active)
RAET1L (retinoic acid early transcript 1L)	-0.24
RAET1L (retinoic acid early transcript 1L)	0.64
RAET1L (retinoic acid early transcript 1L)	-0.03
RAET1L (retinoic acid early transcript 1L)	0.29
OVCA2 (OVCA2 serine hydrolase domain containing)	-0.45
OVCA2 (OVCA2 serine hydrolase domain containing)	4.25 (active)
OVCA2 (OVCA2 serine hydrolase domain containing)	-1.09
OVCA2 (OVCA2 serine hydrolase domain containing)	-0.38
ZNF682 (zinc finger protein 682)	0.35
ZNF682 (zinc finger protein 682)	0.43
ZNF682 (zinc finger protein 682)	-1.03
ZNF682 (zinc finger protein 682)	1.05
NRGN (neurogranin)	-0.74
NRGN (neurogranin)	1.54
NRGN (neurogranin)	0.58
NRGN (neurogranin)	0.02
S1PR1 (sphingosine-1-phosphate receptor 1)	-0.84
S1PR1 (sphingosine-1-phosphate receptor 1)	-0.61
S1PR1 (sphingosine-1-phosphate receptor 1)	-0.65
S1PR1 (sphingosine-1-phosphate receptor 1)	-0.31
MOV10L1 (Mov10 like RNA helicase 1)	-0.55
MOV10L1 (Mov10 like RNA helicase 1)	-1.34
MOV10L1 (Mov10 like RNA helicase 1)	-1.13
MOV10L1 (Mov10 like RNA helicase 1)	-0.38
TSPAN17 (tetraspanin 17)	-1.11
TSPAN17 (tetraspanin 17)	0.12
TSPAN17 (tetraspanin 17)	-0.4
TSPAN17 (tetraspanin 17)	-0.64
LCN12 (lipocalin 12)	-0.06
LCN12 (lipocalin 12)	-0.29
LCN12 (lipocalin 12)	-0.27
LCN12 (lipocalin 12)	0.57
NDUFA6 (NADH:ubiquinone oxidoreductase subunit A6)	0.04
NDUFA6 (NADH:ubiquinone oxidoreductase subunit A6)	0.69
NDUFA6 (NADH:ubiquinone oxidoreductase subunit A6)	2.09
NDUFA6 (NADH:ubiquinone oxidoreductase subunit A6)	0.7
DCP2 (decapping mRNA 2)	-0.97
DCP2 (decapping mRNA 2)	-0.31
DCP2 (decapping mRNA 2)	-0.13
DCP2 (decapping mRNA 2)	-0.18
HAPLN3 (hyaluronan and proteoglycan link protein 3)	2.89 (active)
HAPLN3 (hyaluronan and proteoglycan link protein 3)	4.53 (active)
HAPLN3 (hyaluronan and proteoglycan link protein 3)	3.37 (active)
HAPLN3 (hyaluronan and proteoglycan link protein 3)	2.07
GTF2F2 (general transcription factor IIF subunit 2)	-0.59
GTF2F2 (general transcription factor IIF subunit 2)	0.44
GTF2F2 (general transcription factor IIF subunit 2)	-0.65
GTF2F2 (general transcription factor IIF subunit 2)	0.2
EIF4G2 (eukaryotic translation initiation factor 4 gamma 2)	-1.69 (active)
EIF4G2 (eukaryotic translation initiation factor 4 gamma 2)	-0.42
EIF4G2 (eukaryotic translation initiation factor 4 gamma 2)	-1.41
EIF4G2 (eukaryotic translation initiation factor 4 gamma 2)	-0.84
TXLNG (taxilin gamma)	-1.18
TXLNG (taxilin gamma)	-0.95
TXLNG (taxilin gamma)	-0.3
TXLNG (taxilin gamma)	0.35
H2AC7 (H2A clustered histone 7)	-0.09
H2AC7 (H2A clustered histone 7)	0.51
H2AC7 (H2A clustered histone 7)	0.92
H2AC7 (H2A clustered histone 7)	-0.06
CHST15 (carbohydrate sulfotransferase 15)	0.27
CHST15 (carbohydrate sulfotransferase 15)	0.17
CHST15 (carbohydrate sulfotransferase 15)	2
CHST15 (carbohydrate sulfotransferase 15)	2.16
MRPL19 (mitochondrial ribosomal protein L19)	-0.19
MRPL19 (mitochondrial ribosomal protein L19)	-0.39
MRPL19 (mitochondrial ribosomal protein L19)	-0.42
MRPL19 (mitochondrial ribosomal protein L19)	-0.41
SH3BP5 (SH3 domain binding protein 5)	0.02
SH3BP5 (SH3 domain binding protein 5)	-0.18
SH3BP5 (SH3 domain binding protein 5)	0.19
SH3BP5 (SH3 domain binding protein 5)	0.23
